This passage reports median seed-adjusted z-score results from PubChem BioAssay AID1347426 (Functional Genomics Laboratory (NCATS/FGL), 2020).

Screen size: about 31,000 sequences; about 1,400 (4.5%) were called active.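 The calls were made as follows: active = median seed-adjusted z-score above 1 or below -1; inactive = the rest.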 The list shows a part of the results.

The assay in a line: Novel Modifiers of Survival Motor Neuron (SMN) Protein: Gene Identification via Genome-wide siRNA Screen.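 Also: luminescence tracks full-length SMN protein made from the SMN2 reporter.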 Conditions: HEK293T SMN2-luciferase reporter, siRNA knockdown, 72 h; actives lie on both sides. In outline:
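Luciferase signal, proportional to full-length SMN made from an SMN2 cDNA reporter in stable HEK293T cells, was read 72 h after siRNA reverse transfection. Values were expressed as MAD scores after non-targeting-control normalization and log10 conversion; seed analysis flagged off-targets.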
On the technique in general: In a reporter assay the amount or activity of a reporter protein is the signal.
As for GCCGUGCUGAUGGAGAGUATT against MFAP4, the median seed-adjusted z-score was inactive: -0.28. As for GAUCUUCGGUGAAUCAGAATT against MRC2, the figure is active: -1.34.

In the case of CAGAUAUUCCAAAAGGCUATT against TXNL1, the median seed-adjusted z-score was inactive: -0.554. As for CUCAACCUUUCAUCCUUUATT against PCGF3, the median seed-adjusted z-score was inactive: 0.876. Next, GUACUUAUAUGAACGUAUUTT against CHD8: inactive: -0.158; GAUCAACUCAACUUACUGATT against ZNF561: inactive: -0.00904; GUGCAUCCGUACUCCCAAATT against CTGF: inactive: -0.181. Next, GAACGUGCAGGGUGAUUAUTT against ASS1: inactive: 0.0886. GUUUCGAAAUUCAUCUGUUTT against CUTC: the median seed-adjusted z-score is inactive: -0.377. As for GGAACUUACGAUGCAGGAATT against GALNT13, the figure is inactive: -0.0149; as for GAAGAACCCUGGUCUUUCATT against CARD14, inactive: -0.104. Next, GCUUCAUGAUUGUAUCCAATT against GCLM: inactive: 0.0509. Next, CGGUCUUGGUUAUCCUCAUTT against KCNA5: inactive: 0.206. As to UGGGUGCUGUGAUAAACAATT against SLC1A3, the median seed-adjusted z-score is inactive: -0.421. Next, GCACAUUGAUCUUACCCAATT against CYP2U1: inactive: 0.144; GGUAUUCCUGUUCAACAAATT against ZNF235: inactive: 0.348; CCAGUACAGGUGGAUCUAATT against MED1: inactive: -0.855. As for GAGCUUCACUCAAAAAUCATT against ZNF160, the figure is inactive: -0.454; as for GAAGCGACUGUUUUAGAAATT against EIF4E3, inactive: 0. Next, GGUCGUAGGUUCUUAAGAATT against IMP3: inactive: 0.0239; GCUGUAUUCUCAAUCCUAUTT against ADCY8: inactive: 0.103; GAGUACGAGUGGUAAAGCATT against SELI: inactive: 0. Consider GAAAUGCGGUUGCUGAAGATT against SIX5, for which the median seed-adjusted z-score was inactive: 0. Regarding AUAAAUACCUCGGACAUUATT against EIF1AX, the median seed-adjusted z-score is inactive: 0.878. As for CAAUUUUAAGAGGAAGCAATT against PRODH2, the figure is inactive: 0.817. Next, UCAAUACUGUGGGUUCUUATT against FBLN2: inactive: 0.176.

For the sequence ACCCACUCCUAAAAACUCATT against NDUFB4, the median seed-adjusted z-score is inactive: -0.697. As for GAACUAUCCUAUCCCUGAATT against SORD, the figure is inactive: 0.17; as for CCACCAUGAUCAAAAUGGATT against SALL3, inactive: -0.133. As for CCAUCCCACUGGUCACAUUTT against SLC7A8, the figure is inactive: -0.134. Next, GCUAUAUCCAGGUCACAGATT against PRKACB: inactive: -0.258; GGUCAUACACGGGAUCUCUTT against SLC30A2: inactive: -0.402; GGCUAGGAAUGUGCAGACATT against EXO1: inactive: 0.547. Consider CCUGGACGAUGACGGAUUATT against SETD7, for which the median seed-adjusted z-score is inactive: -0.0831. Take ACAUCUUCCUCACGUCCUATT against PLXNB2: the median seed-adjusted z-score is inactive: -0.237.

On to GCACAUCCGAAGUGAGUUUTT against MTHFR, for which the median seed-adjusted z-score is inactive: 0. As for GACUUGAGCUAAAUGGUCATT against SIAH1, the figure is active: 1.5. Next, GCUUAUGAACUAACGAGAATT against USP13: inactive: -0.044. As for GGUUCAGUCUAUACAACAATT against DSC2, the figure is inactive: -0.0641; as for GGUGCUGGAUGUUAACGAUTT against PCDHB15, inactive: 0.0154; as for GGAUGACCAGGGUCUAUAATT against FMO4, inactive: -0.359. With GCUGGACUCUUUGGGUUCATT against CDH26, the median seed-adjusted z-score is inactive: 0. Next, CAAUAGCAGUGCUAUGUUATT against ARPC5: inactive: -0.479. For GCAUAUCCAUAUACAACAATT against PDZD8, the median seed-adjusted z-score was inactive: 0.0582.

Regarding AGAUUUUCAAGGGAGCAAATT against EWSR1, the median seed-adjusted z-score is inactive: -0.654. Next, CAACGAUGGUGUACUACAATT against ABCC9: inactive: 0.376. As to CUUCACUAUUUACCUCUUUTT against 3-Mar, the median seed-adjusted z-score is inactive: 0.069. Next, GCAGUAACCUUAUACACUATT against BTNL9: inactive: 0.0189. In the case of AGUCAGCUCCGAUACUUCATT against CAPN10, the median seed-adjusted z-score is inactive: 0.364. Next, GCUCAUCUCUCACGACAAUTT against HOXC9: inactive: 0.395; GGAUUUCUUCAUCCCGCUUTT against GSX2: inactive: -0.621. Take AGAGUGCCGUCAUUCCGGATT against BMP4: the median seed-adjusted z-score is inactive: -0.612.

For GAUUUCCAGUAGUCGAAAATT against CD46, the median seed-adjusted z-score is inactive: -0.0278. As for CGAACGGACUUGAACUACATT against DNAH5, the figure is inactive: -0.45; as for CGUUGGAUGAGGUGGAUAATT against PRKCQ, inactive: 0.692. As for GGGCUAAGCGAUCCAGUAATT against HNF4G, the figure is inactive: 0.01; as for GAAGGAUUAGAAACCGCAATT against RNF144, inactive: 0.0938. Next, GCCCUUAUUCCGAUCUACATT against ERCC1: inactive: -0.566; AGAAAGUGUACGACCCAAATT against NUCB1: inactive: 0.232. As for CCAUAACCGCCACACCCUUTT against GPR153, the median seed-adjusted z-score is active: -1.08. As for GGGCUACAAUAGUAAGUUUTT against ZNF224, the figure is inactive: 0.0073; as for AGUUGUAAAUUUACAAAGATT against UNC119, inactive: 0.171; as for CUCUGAUGAUGUCGAAAAATT against LGR5, inactive: 0. GCUAGAUUUUCUUCCAGUATT against ZFAND2A: the median seed-adjusted z-score was inactive: 0. As for GCAUGGUAAUUUAUAGUUUTT against NGF, the figure is inactive: -0.325; as for GAAAUUUAUUGACGACAGATT against CDYL, inactive: 0; as for CAUCCAUCCUACUUCAUCATT against ZNF667, inactive: -0.101. Next, CCUUAAAGGUGCGACUGAATT against FIGLA: inactive: -0.064; GCAAGAGCGAUGUCUACUATT against MBD2: inactive: -0.067. Next, CCUUGAUAGUGGUCGGGAATT against OSBPL3: inactive: 0.0159; GGAAGAGACCUUUACCUGUTT against KLF3: inactive: 0.628. In the case of CGAACAGCCUACACCUACATT against RFX2, the median seed-adjusted z-score is inactive: 0.271. With GGAACAUUCCGACCUACAATT against PTDSS2, the median seed-adjusted z-score is inactive: 0.0941. As for CUUUCUAGAUGACAACUUCTT against NPBWR2, the figure is inactive: 0.438; as for GGAGUACCAUAGAUACAGATT against PPIG, inactive: -0.0192. Next, GCUCAGAACUUUAGUUUUATT against NUPL2: inactive: 0.134; GGACCCAAGUCUUGCUGCATT against CARD18: inactive: 0.568; AGUACAUGCAGGUACCUGUTT against DUSP18: inactive: 0.13.

In the case of CCACGAGUCUUCACAUGAATT against SSH3, the median seed-adjusted z-score was inactive: -0.0772. Next, CGCAAGUACUAUUCCACCATT against SMOX: inactive: -0.148; GACGACCAAUUAUAGUUUATT against ZRANB1: inactive: -0.347.

For CCUGCUAAAUUGGAUCAAATT against ITIH2, the median seed-adjusted z-score was inactive: 0.262. Next, GGCUCUACCAGAUAGAAAATT against HUNK: inactive: -0.183.

With GGCAGUAGCUGACUUUCUATT against GPR109B, the median seed-adjusted z-score is inactive: 0.321. Next, GGAGGUGGUUUGAAUGCAATT against TIGD3: inactive: 0.486; CUAACGUAAUGACUGCUUUTT against ELK4: inactive: 0.235; GCAUCAUCCCUGGUACCAATT against SRCAP: inactive: -0.42. As for CAGUGAAGAUAUCGAAAAATT against PARP11, the figure is inactive: 0.192. As for GGCUUAUUGGAGCUCUUAATT against CSE1L, the figure is inactive: 0.425. As to CAAUCAAGUUUUACACCAATT against MAP3K15, the median seed-adjusted z-score was inactive: -0.315. Regarding AGAACUUUGAGUCCAUGUATT against TBX21, the median seed-adjusted z-score was inactive: -0.454. Next, AGAUAUCAGUGGUAAUGCATT against ZNF789: inactive: 0.0534.

With CGUGGUUAGUCUAAGUAAATT against SLC17A8, the median seed-adjusted z-score is inactive: -0.332. As for GCACGCUGAGGAAACGCAATT against PRKAR1B, the figure is inactive: -0.0406. Next, GGAGUGUGACAAUAACAAUTT against RNF157: inactive: 0.0197; GACUCUAGGAGAUAACAUUTT against SPPL2A: inactive: -0.358; CCACAGACCUCAUCGUCCATT against PCYT2: inactive: 0.217. Next, CCUUAAACCACCAAUUUAUTT against METTL2A: inactive: -0.49. For GAAUCGGAGGCGUACGGAUTT against PCSK4, the median seed-adjusted z-score is inactive: 0.828. Next, AGAUUCCCAGGGAACCAAATT against GRM6: inactive: -0.0544. As for GAUCCUAAAUCAUGACUUATT against COX6B1, the figure is inactive: -0.706. In the case of CGCCUACACUCCUACGUGUTT against ZDHHC24, the median seed-adjusted z-score was inactive: -0.695. As for GAGUAGAUCUGCUAAAAUUTT against GLA, the figure is inactive: -0.494.

With CCAAGACGAUGAGAGUAUATT against UGCGL2, the median seed-adjusted z-score was inactive: -0.456. Next, CGAUAUGAAGUGUCUAAAATT against TXNDC10: inactive: -0.0542.

Regarding GUCCGACAUUUUCAACUUATT against TIGD7, the median seed-adjusted z-score was inactive: -0.116. As for ACAUCUUCGAGAUCAAUGATT against ACAA1, the figure is inactive: 0.384.
